Results reported in patent publication US20190016826A1.
Numbering of substitutions follows the chain as printed. Results are given in words; binding and its absence hold for the method and conditions named. Some results given as binding are weak or reduced against the parent protein; the word gives no strength.

By UniProt entry, the sequences of proteins in these tests, tags left out. Where a name states a change or a piece, a line headed by the entry shows the natural chain unless it says otherwise.
UniProt Q92743: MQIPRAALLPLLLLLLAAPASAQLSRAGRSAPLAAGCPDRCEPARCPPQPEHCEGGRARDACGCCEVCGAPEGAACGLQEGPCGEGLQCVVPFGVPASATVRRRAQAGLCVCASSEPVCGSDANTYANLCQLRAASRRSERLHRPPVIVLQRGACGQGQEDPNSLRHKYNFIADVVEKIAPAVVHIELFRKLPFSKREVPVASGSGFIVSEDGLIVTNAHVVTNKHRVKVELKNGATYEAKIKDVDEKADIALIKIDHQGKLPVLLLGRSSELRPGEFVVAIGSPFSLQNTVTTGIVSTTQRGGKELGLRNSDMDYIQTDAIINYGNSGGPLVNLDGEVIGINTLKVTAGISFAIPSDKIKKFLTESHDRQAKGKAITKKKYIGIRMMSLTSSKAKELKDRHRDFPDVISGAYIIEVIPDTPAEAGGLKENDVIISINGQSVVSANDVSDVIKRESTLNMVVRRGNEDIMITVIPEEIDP
UniProt Q9R118: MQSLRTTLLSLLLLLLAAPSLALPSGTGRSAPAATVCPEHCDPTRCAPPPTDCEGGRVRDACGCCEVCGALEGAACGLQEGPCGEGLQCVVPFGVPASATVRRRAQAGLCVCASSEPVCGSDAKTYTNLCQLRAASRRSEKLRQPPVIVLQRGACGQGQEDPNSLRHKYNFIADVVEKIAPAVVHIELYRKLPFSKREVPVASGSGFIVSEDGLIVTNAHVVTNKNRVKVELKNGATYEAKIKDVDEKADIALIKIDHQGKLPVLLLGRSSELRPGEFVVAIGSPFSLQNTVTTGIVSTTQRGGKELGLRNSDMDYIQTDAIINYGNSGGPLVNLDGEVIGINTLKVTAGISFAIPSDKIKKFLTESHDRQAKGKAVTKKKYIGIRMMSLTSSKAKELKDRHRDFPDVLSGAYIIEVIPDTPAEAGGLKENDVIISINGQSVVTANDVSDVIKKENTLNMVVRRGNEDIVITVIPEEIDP

B1: YW505.94a.28 Fab (Fab, V domains shown)
VH: EVQLVESGGGLVQPGGSLRLSCAASGFSISGYYIHWVRQAPGKGLEWVGWIDPYGGDTNYADSVKGRFTISADTSKNTAYLQMNSLRAEDTAVYYCARGTFLTSWGHYFDYWGQGT
VL: DIQMTQSPSSLSASVGDRVTITCRASQSINTYLAWYQQKPGKAPKLLIYSASFLYSGVPSRFSGSGSGTDFTLTISSLQPEDFATYYCQQSDDTPPTFGQGTKVEIKR
B2: YW505.94a.54 Fab (Fab, V domains shown)
VH: B1 VH
VL: B1 VL with S28V, I29V, N30G, T31N, T94H
B3: YW505.94a Fab (Fab, V domains shown)
VH: B1 VH
VL: B1 VL with S28D, I29V, N30S, Y32A, L33V, D92Y, D93T

Biological target: Full length human HtrA1 (HuHtrA1) (Q23-P480), N-terminal His6 tag (human) (UniProt Q92743)
Assay: phage competition ELISA: Fab-phage pre-incubated with serially diluted soluble HuHtrA1 (x axis), unbound phage captured on HuHtrA1-coated plate

| binding | Binder |
| --- | --- |
| binds | B1 |
| binds | B2 |
| binds | B3 |

Biological target: Full length murine HtrA1 (MuHtrA1) (P24-P480), N-terminal His6 tag (murine) (UniProt Q9R118)
Assay: phage competition ELISA: Fab-phage pre-incubated with serially diluted soluble MuHtrA1 (x axis), unbound phage captured on HuHtrA1-coated plate

| binding | Binder |
| --- | --- |
| binds | B1 |
| binds | B2 |
| binds | B3 |
